Measurements taken from PMC7349982.
Results are given in words; binding and its absence hold for the method and conditions named. Binding can be weak; no strength is given. Sequences can lack the tags named with a protein.

Key:
[1] = target: T1, SpoIIE (bacterial two-hybrid fusion) (Bacillus subtilis) (UniProt P37475); test: two-hybrid; bacterial two-hybrid (BACTH): fusions to adenylate cyclase fragments T18 and T25 co-transformed into E. coli BTH101 (Δcya); spotted on LB plates with X-Gal and 0.5 mM IPTG, 24-48 h at 30 °C; blue colour and β-galactosidase activity (Miller units)
T1 sequence: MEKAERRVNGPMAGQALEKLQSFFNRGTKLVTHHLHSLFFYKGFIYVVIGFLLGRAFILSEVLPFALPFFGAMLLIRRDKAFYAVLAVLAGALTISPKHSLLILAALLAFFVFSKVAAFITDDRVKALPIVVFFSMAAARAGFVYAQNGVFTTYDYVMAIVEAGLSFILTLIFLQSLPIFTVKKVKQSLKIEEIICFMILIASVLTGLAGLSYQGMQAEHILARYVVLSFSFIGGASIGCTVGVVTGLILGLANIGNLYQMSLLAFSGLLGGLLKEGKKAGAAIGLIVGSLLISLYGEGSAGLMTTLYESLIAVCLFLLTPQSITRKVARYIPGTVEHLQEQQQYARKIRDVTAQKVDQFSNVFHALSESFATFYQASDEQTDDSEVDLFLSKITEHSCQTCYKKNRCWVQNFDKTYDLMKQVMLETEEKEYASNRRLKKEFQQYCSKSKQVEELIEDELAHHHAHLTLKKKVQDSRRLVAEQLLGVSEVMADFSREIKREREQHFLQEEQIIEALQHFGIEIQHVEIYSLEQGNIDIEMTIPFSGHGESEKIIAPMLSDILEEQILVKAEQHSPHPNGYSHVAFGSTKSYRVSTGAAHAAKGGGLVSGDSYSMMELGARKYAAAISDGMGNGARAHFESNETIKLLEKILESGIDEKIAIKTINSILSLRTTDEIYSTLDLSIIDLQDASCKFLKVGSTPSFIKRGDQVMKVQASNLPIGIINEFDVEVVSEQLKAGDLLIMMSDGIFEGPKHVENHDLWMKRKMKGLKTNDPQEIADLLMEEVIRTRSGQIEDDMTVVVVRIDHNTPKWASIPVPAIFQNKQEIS

[2] = target: SpoIIE domains I+II (bacterial two-hybrid fusion) (Bacillus subtilis); test: as above

“RodZ (bacterial two-hybrid fusion) (Bacillus subtilis)” was tested, and the binding [1] was “binds”.

B1: GpsB (bacterial two-hybrid fusion) (protein, UniProt P0CI74 1-98)
chain: MLADKVKLSAKEILEKEFKTGVRGYKQEDVDKFLDMIIKDYETFHQEIEELQQENLQLKKQLEEASKKQPVQSNTTNFDILKRLSNLEKHVFGSKLYD
With B1 the binding [2] was “binds weakly”.
